Holding throughout (assay): pull-down; calmodulin affinity purification coupled to western blot (AP-WB): TAP-tagged interactor as bait on calmodulin sepharose beads, galactose-induced Wsc1-HA as prey, yeast lysate in CaM-IPLB with 1% Triton X-100, 2 hr at 4°
For orientation: In western blotting, separated proteins are transferred to a membrane and probed.

Chains of the proteins cited; added tags and fusions are not shown.
UniProt Q01590: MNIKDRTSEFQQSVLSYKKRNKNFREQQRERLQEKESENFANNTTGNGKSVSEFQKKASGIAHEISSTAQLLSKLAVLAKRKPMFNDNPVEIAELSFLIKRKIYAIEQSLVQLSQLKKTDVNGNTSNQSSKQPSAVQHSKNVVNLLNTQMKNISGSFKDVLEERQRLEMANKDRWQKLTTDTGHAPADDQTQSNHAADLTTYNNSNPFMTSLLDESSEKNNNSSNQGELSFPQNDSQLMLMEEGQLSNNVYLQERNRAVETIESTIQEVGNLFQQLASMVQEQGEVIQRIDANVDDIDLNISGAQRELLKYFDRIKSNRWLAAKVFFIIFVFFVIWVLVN
UniProt P02994: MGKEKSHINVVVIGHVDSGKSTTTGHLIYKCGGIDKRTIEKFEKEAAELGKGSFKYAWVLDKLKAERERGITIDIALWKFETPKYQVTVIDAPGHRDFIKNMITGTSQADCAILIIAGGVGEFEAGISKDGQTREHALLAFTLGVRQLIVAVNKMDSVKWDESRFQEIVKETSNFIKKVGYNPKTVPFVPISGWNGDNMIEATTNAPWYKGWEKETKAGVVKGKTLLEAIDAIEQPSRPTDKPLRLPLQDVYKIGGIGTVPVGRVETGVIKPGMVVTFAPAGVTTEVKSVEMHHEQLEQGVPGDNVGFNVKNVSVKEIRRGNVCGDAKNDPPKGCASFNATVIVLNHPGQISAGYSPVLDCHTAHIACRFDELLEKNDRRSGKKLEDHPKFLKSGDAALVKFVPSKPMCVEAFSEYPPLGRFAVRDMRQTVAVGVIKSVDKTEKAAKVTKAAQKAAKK

Test [1] addresses T1, Egd2p, TAP-tagged bait (S. cerevisiae) (UniProt P38879).
T1 sequence: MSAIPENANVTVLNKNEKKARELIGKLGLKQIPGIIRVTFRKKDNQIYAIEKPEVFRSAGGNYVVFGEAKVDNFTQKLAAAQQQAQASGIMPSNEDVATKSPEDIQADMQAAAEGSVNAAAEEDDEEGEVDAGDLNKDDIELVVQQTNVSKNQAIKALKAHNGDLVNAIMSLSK

The target in test [2] is T2, Mac1-TAP (S. cerevisiae) (UniProt P35192).
T2 sequence: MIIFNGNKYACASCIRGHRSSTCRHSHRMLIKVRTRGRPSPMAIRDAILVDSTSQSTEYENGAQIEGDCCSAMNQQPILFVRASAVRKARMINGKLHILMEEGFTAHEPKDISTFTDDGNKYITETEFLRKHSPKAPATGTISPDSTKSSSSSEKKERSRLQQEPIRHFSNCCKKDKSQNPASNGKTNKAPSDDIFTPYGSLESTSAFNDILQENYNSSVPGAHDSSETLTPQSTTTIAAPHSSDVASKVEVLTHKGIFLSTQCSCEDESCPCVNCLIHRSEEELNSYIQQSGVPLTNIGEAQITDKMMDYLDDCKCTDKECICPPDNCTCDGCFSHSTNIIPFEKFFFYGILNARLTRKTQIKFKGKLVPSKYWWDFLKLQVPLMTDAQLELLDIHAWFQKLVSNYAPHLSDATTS

Test [3] deals with T3, Mek1p, TAP-tagged bait (S. cerevisiae) (UniProt P24719).
T3 sequence: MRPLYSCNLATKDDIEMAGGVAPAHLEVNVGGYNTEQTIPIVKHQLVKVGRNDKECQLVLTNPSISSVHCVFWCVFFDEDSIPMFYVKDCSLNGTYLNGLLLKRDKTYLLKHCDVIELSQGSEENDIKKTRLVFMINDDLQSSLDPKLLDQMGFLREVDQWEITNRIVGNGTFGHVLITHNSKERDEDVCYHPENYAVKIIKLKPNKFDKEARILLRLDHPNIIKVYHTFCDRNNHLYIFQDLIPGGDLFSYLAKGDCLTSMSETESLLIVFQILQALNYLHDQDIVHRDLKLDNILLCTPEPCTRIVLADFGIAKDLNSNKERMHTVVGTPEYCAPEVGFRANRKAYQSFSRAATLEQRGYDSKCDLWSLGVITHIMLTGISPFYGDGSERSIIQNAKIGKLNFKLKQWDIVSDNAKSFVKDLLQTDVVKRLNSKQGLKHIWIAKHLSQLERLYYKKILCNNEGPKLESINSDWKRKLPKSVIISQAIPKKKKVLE

The target of test [4] is Sed5-TAP (S. cerevisiae) (UniProt Q01590).
The target in test [5] is Tef1p, TAP-tagged bait (S. cerevisiae) (UniProt P02994).
Test [6] addresses T4, Tom70-TAP (S. cerevisiae) (UniProt P07213).
T4 sequence: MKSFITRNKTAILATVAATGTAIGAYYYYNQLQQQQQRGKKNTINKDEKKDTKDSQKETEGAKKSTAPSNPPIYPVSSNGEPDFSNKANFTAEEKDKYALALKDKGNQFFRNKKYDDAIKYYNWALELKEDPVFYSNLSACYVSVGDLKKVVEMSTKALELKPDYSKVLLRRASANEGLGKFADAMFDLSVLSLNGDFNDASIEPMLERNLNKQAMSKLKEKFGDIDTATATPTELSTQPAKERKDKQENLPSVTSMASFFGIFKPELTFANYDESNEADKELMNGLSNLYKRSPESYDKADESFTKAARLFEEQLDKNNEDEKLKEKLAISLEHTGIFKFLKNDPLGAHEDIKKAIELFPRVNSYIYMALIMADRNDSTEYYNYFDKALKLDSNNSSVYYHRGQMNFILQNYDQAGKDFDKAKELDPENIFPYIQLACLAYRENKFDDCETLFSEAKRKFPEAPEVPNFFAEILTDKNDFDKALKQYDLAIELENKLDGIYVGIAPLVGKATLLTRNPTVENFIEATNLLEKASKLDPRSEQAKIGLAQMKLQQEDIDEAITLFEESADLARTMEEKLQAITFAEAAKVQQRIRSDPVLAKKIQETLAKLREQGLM

For test [7], the target named is T5, Ypl238cp, TAP-tagged bait (S. cerevisiae) (UniProt Q99401).
T5 sequence: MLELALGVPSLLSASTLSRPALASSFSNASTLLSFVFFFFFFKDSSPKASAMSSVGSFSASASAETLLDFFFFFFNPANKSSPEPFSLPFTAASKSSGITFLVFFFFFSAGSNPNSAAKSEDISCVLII

These are yes or no findings as the source states them, for the method shown. Binding seen in cells or lysates may run through a third protein. Some binding calls cover weakened binding; strength is not graded here. Tags and fused reporters may be left off the sequences shown.

B1: Wsc1-HA (protein, UniProt P54867 22-378)
chain: YEYVNCFSSLPSDFSKADSYNWQSSSHCNSECSAKGASYFALYNHSECYCGDTNPSGSESTSSSCNTYCFGYSSEMCGGEDAYSVYQLDSDTNSNSISSSDSSTESTSASSSTTSSTTSSTTSTTSSTTSSTTSSMASSSTVQNSPESTQAAASISTSQSSSTVTSESSLTSDTLATSSTSSQSQDATSIIYSTTFHTEGGSTIFVTNTITASAQNSGSATGTAGSDSTSGSKTHKKKANVGAIVGGVVGGVVGAVAIALCILLIVRHINMKREQDRMEKEYQEAIKPVEYPDKLYASSFSSNHGPSSGSFEEEHTKGQTDINPFDDSRRISNGTFINGGPGGKNNVLTVVNPDEAD
In the case of B1, the binding entry in test [1] is recorded as “binds”; in test [2], “no binding”; in test [3] it was “binds”; in test [4] it was “no binding”; in test [5], “binds”; in test [6], “binds weakly”. Besides, in test [7], the binding entry is “binds”.

The values are drawn from PMC6469404.
